For some assays here: Some peptides are written in HELM: one residue between dots, names in brackets for other building blocks, links after the first $.
Tests used:
[1] = general procedure: Fmoc solid-phase peptide synthesis; Rink Amide resin; HBTU/DIPEA; HATU/HOBt/DIPEA for 5(6)-Fam labelling; details: whole synthesis
[2] = general procedure: Fmoc solid-phase peptide synthesis; 2-Cl-Trt resin; HBTU/DIPEA; HATU/HOBt/DIPEA for 5(6)-Fam labelling; details: whole synthesis

## H-Ala-Val-Pro-Dpm-Ala-Lys(5(6)-Fam)-Lys-NH2
[1]
  isolated yield: Yield 12%

## PEPTIDE1{A.V.P.W}$$$$V2.0
[2]
  isolated yield: Yield 39%
